The results in this text go back to patent US20250034197A1, “NUCLEOSIDE-DIPHOSPHATE-HEPTOSE COMPOUNDS FOR TREATING CONDITIONS ASSOCIATED WITH ALPK1 ACTIVITY” (PYROTECH (BEIJING) BIOTECHNOLOGY CO., LTD., priority 2021, published 2025).

By UniProt entry, the sequences of proteins in these tests, tags left out.
UniProt Q96QP1, whole entry: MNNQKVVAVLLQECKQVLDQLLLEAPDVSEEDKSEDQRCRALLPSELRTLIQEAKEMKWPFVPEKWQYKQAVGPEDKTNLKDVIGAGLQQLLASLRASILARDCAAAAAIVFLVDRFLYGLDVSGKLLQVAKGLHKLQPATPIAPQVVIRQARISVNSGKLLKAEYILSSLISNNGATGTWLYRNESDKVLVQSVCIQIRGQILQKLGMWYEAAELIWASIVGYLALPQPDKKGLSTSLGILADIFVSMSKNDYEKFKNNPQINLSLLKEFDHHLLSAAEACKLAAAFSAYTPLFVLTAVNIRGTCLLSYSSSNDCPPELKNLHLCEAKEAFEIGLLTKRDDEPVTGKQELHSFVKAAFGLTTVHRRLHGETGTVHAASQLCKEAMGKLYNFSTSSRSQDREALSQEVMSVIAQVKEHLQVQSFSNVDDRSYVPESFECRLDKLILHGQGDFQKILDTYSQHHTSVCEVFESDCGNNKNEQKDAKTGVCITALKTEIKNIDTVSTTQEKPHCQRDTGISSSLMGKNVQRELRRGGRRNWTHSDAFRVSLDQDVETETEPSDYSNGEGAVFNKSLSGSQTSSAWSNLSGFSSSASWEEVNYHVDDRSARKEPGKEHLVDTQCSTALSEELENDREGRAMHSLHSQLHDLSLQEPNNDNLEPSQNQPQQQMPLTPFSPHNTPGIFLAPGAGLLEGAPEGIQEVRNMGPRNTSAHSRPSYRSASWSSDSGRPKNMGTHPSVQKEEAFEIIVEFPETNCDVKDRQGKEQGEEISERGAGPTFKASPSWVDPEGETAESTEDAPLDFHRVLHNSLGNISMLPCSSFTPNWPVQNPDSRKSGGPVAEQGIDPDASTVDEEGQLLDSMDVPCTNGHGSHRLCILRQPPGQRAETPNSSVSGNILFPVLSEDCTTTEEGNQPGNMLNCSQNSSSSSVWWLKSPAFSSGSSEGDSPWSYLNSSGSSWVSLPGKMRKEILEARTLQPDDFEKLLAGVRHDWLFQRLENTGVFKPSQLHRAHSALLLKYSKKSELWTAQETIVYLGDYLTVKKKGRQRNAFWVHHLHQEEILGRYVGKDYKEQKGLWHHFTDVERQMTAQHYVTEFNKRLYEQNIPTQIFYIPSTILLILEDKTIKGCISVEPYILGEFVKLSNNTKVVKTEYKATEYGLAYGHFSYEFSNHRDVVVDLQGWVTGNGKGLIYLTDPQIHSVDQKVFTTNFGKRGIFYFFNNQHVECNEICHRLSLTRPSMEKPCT

The assay addresses ALPK1 (Homo sapiens, UniProt Q96QP1). Nature of the assay: NF-κB luciferase reporter assay in 293T cells (cellular assay). The settings on record: read-out: Activity on Cellular Assay (EC50). The procedure: The compounds disclosed herein activate NF-κB through ALPK1-TIFA axis as determined by the NF-κB luciferase reporter and TIFA phosphorylation. For NF-κB luciferase assay, the plasmids (pNL2.2-BII-5RE-Luc), and control vector (pRL-TK) were transfected into 293T cells with the Jetprime reagents (Polyplus). NF-κB luciferase activity was determined using the dual luciferase assay kit (Promega) according to the manufacturer's instructions. TIFA phosphorylation upon the treatment with the compounds disclosed herein described in Table 1, were assayed with immunoblotting. Briefly, for the immunoblotting assay, the 293T cells were seeded in 12-well-plates and cultured for 16 h, and treated with indicated compounds for another 2 hours. Subsequently, the cells were collected and sampled as the regular western-blotting method, immunoblotted by the TIFA phosphorylation specific antibody (ab214815, Abcam).
The EC50 of the compounds disclosed herein were determined by the NF-κB luciferase reporter assay using 293T cells described supra. Compounds with indicated concentrations were added to the culture medium of 293T and the NF-κB luciferase activity was determined using the dual luciferase assay kit (Promega) according to the manufacturer's instructions. […] These chemical entities induce strong activation of the immune regulator NF-κB.
For orientation: Reporter assays use an easily measured gene product as a stand-in for the process of interest.

The structures given here were assigned with low confidence; some may be wrong.

On to `C=C[C@@]1(O)[C@H](O)[C@@H](COP(=O)(O)OP(=O)(O)OC2OC([C@H](COC(C)=O)OC(C)=O)C(OC(C)=O)C(OC(C)=O)C2OC(C)=O)O[C@H]1n1cnc2c(N)ncnc21` (some centres unmarked), for which the 50% effective concentration (EC50) turned out to be 68.3 nM.

Consider `CC(=O)OC[C@H](OC(C)=O)C1OC(OP(=O)(O)OP(=O)(O)OC[C@H]2O[C@@H](n3cnc4c(N)ncnc43)[C@H](N(C)C)[C@@H]2O)C(OC(C)=O)C(OC(C)=O)C1OC(C)=O` (some centres unmarked), for which the concentration giving a half-maximal response (EC50) was 198 nM.

Broadly, the EC50 is the concentration that produces a half-maximal response.
